Reference: PubChem BioAssay AID1439 (NMMLSC, 2008)
The campaign covered roughly 220,000 compounds. About 770 (0.35%) were called active. The inconclusive results got no clear call from the source; some entries with a clear call stand among them for comparison. Cut-off read from the data, not from the text of the source: active = binding response below about 49% or above about 150%; inconclusive = no clear call, values can overlap the other calls; inactive = in between.

Sequences of proteins named here, by UniProt entry; tags and fusion partners are left off.
UniProt P09471, whole entry, looked up: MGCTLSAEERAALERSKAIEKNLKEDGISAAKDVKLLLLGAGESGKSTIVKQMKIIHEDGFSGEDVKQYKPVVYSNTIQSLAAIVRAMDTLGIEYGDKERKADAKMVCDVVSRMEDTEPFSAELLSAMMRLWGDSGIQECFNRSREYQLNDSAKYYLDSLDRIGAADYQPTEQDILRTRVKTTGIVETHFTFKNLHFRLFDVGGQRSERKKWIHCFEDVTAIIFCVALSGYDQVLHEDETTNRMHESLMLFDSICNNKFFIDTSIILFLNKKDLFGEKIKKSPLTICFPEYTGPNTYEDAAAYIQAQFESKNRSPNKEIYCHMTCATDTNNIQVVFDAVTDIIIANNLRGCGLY

The compounds below were run against Guanine nucleotide-binding protein G(o) subunit alpha (Homo sapiens) (UniProt P09471) (assay: RGS7-Galphao binding modulators, primary screen, biochemical, multiplexed bead flow cytometry (AID 1439;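 note: fluorescent Galphao held in activated GDP-AlF4 state binding bead-coupled RGS7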)). Conditions: at 10 µM, actives lie on both sides.

Structure (SMILES)	binding response (% of control)
Clc1ccc(Cl)c2sc(N3CCCC3)nc12	inactive: 99%
CCOC(=O)C1=C(C)NC(=O)CC1c1cc(OC)c(OC)cc1Br (configuration not stated)	inactive: 100%
COCCNC(=O)CNC(=S)N(CCCN1CCOCC1)Cc1cccs1	inconclusive: 129%
Oc1c(Br)cc(Br)cc1/C=N/NC(=S)N[C@H]1CC2C=CC1C2 (some centres not stated)	inconclusive: 70.5%
O=C(NC(=S)Nc1ccc2oc(=O)ccc2c1)c1ccco1	inconclusive: 91.7%
NS(=O)(=O)c1ccc(CCNS(=O)(=O)c2ccc(Cl)nc2)cc1	inconclusive: 42.5%
COc1cc(C(=S)N2CCOCC2)cc(OC)c1O	inconclusive: 65.9%
COc1ccccc1N1CCN(CC(=O)c2c[nH]c3ccccc23)CC1	inconclusive: 127%
Cc1nc2c(C#N)c[nH]n2c(=O)c1CCO	inconclusive: 103%
COc1cccc(C(C(=O)NC2CCCC2)N(C(=O)c2ccco2)C2CC2)c1OC (configuration not stated)	inactive: 97.3%
Cc1nn(CC2CC2)c(=O)n1-c1ccc(F)cc1	inconclusive: 90%
CC(C)Nc1ccc(C(CC(N)=O)NC(=O)Cc2ccc(Cl)cc2)cc1[N+](=O)[O-] (configuration not stated)	inconclusive: 97.7%
O=C(COC(=O)/C=C/c1ccccc1)NCC1CCCO1 (configuration not stated)	inactive: 105%
Cn1cc2cccc([N+](=O)[O-])c2n1	inactive: 98.9%
CCOC(=O)c1ccc(NC(=O)Nc2ccon2)cc1	inconclusive: 111%
Cc1ccc(NC(=O)/C=C\C(=O)NCC(=O)O)cc1	inactive: 98.8%
COc1ccc(NCc2nnc(SCC(=O)Nc3ccc(OC)cc3)n2C)cc1	inconclusive: 91.8%
O=C(O)c1ccc2c(=O)n(-c3ccc(F)cc3)c(=S)[nH]c2c1	inconclusive: 116%
Cn1c(=S)[nH]c2[nH]c(=O)cnc2c1=O	inactive: 97.5%
COc1ccc(CNC(=O)CN(C)S(=O)(=O)c2ccccc2)cc1	inconclusive: 85.6%
COc1ccc(NC(=S)N=Nc2c(O)[nH]c3ccccc23)cc1	inconclusive: 85.2%
Clc1cccc(Cl)c1Cn1nnc(N2CCCC2)n1	inconclusive: 85.1%
O=C(NN=C1CCN(Cc2ccccc2)CC1)C(O)c1ccccc1 (configuration not stated)	inactive: 97.1%
O=C(NC(=S)NCCC1=CCCCC1)c1ccco1	inconclusive: 104%
Cn1nc(NC(=O)CC23CC4CC(CC(C4)C2)C3)c2c(F)cccc21	inconclusive: 107%
O=C1C(C=NCc2ccncc2)=C(O)c2ccccc21	inactive: 100%
CC(/C=N/NC(=O)Cn1cnc2c1c(=O)n(C)c(=O)n2C)=C\c1ccco1	inconclusive: 480%

Some of the entries so far, as labelled records:
O=C(NC(=S)Nc1ccc2oc(=O)ccc2c1)c1ccco1
  binding response (% of control): inconclusive: 91.7%
CC(/C=N/NC(=O)Cn1cnc2c1c(=O)n(C)c(=O)n2C)=C\c1ccco1
  binding response (% of control): inconclusive: 480%
